Laboratory results published in patent US6942981.
These are yes or no findings as the source states them, for the method shown. Some results given as binding are weak or reduced against the parent protein; the word gives no strength. For some assays here: Where a sequence is shown, tags or fusion partners need not be part of it.

Assays:
[1] = molecular target: T1, GST-41.8 kD (hypothetical 41.8 kD protein) PDZ domain fusion protein (Mus musculus (Mouse)) (UniProt Q9EQZ7); assay: A assay
T1 sequence: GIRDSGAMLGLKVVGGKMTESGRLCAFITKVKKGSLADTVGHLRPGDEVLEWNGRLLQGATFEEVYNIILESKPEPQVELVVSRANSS

[2] = molecular target: T2, GST-AF6 PDZ domain fusion protein (Homo sapiens (Human)) (UniProt P55196); assay: A assay
T2 sequence: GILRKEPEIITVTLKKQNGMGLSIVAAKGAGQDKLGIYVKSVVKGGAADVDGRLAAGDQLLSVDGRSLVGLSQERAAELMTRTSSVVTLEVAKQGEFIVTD

[3] = molecular target: T3, GST-NeDLG PDZ domains 1-2 fusion protein (Mus musculus (Mouse)) (UniProt P70175); assay: A assay
T3 sequence: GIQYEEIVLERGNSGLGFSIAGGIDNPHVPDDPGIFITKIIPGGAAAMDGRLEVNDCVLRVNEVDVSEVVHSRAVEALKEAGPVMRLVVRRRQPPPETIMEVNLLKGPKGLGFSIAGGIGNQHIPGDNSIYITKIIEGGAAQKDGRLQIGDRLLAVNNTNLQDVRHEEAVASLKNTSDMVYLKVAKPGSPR

[4] = molecular target: GST-PSD95 PDZ domains 1-3 fusion protein (human); assay: A assay
[5] = molecular target: T1, GST-41.8 kD (hypothetical 41.8 kD protein) PDZ domain fusion protein (Mus musculus (Mouse)); assay: A/G assays (Table 2)
[6] = molecular target: T2, GST-AF6 PDZ domain fusion protein (Homo sapiens (Human)); assay: A/G assays (Table 2)
[7] = molecular target: T3, GST-NeDLG PDZ domains 1-2 fusion protein (Mus musculus (Mouse)); assay: A/G assays (Table 2)
[8] = molecular target: GST-PSD95 PDZ domains 1-3 fusion protein (human); assay: A/G assays (Table 2)

binding [1]: binds
binding [2]: binds
binding [3]: binds
binding [4]: binds
binding [5]: binds
binding [6]: binds
binding [7]: binds
binding [8]: binds
Binder: CAISGTSSDRGYGSPRYAEV (biotin at the amino-terminus) [CLASP-4 C-terminal peptide AA3L-V]
